Laboratory results taken from PubChem BioAssay AID2685 (National Center for Advancing Translational Sciences (NCATS), 2010).
Several values for one entry are separate records, joined by “and”; a condition that tells them apart may be missing. Identical values can stand only once. The list shows a part of the results. Further columns of the screen follow, without active or inactive calls. Compounds called inactive in the main read-out are mostly missing here. Words in brackets tell the shape of the fitted curve; partial curves, single points and poor fits give uncertain potencies.

Test: qHTS Assay for Lipid Storage Modulators in Drosophila S3 Cells;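 on cell number change: cells counted by Cell Tracker Red CMTPX staining in the red channel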
Conditions: BODIPY lipid droplet fluorescence, 18-24 h; for cell number change: measured here: cell count max response, cells fed with added oleic acid
Method in brief: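 Drosophila S3 cells loaded with oleic acid (400 uM, as added) and compounds at several concentrations; lipid droplets imaged by 488-nm laser-scanning cytometry, 500–530 nm intensity and object ratio to cell channel. Percent activity normalized to 20 uM Triacsin C.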

[1] = measured here: cell number channel AC50, cells fed with added oleic acid
[2] = measured here: lipid fluorescence (Fed channel) AC50, cells fed with added oleic acid

Compound | AC50 [1] | AC50 [2] | cell number change
CCNc1nc(NCC)nc(SCCOC(=O)Nc2ccc(Cl)cc2Cl)n1 | 6.51 µM [rising, single point] | 3.26 µM [rising, single point] | 
Fc1cccc(Cl)c1CSc1ccc(-c2ccco2)nn1 |  | 23.1 µM [falling, single point] | -29.3%
O=C1C=C(c2cccc(OCc3ccccc3)c2)C[C@@H](c2ccc3c(c2)OCO3)C1 |  | 0.517 µM [falling, single point] | 9.7%
COC(=O)c1[nH]c2c(c1C)C(=O)CC(c1cc(OC)ccc1OC)C2 (stereo not given) | 0.231 µM [rising, full curve] | 0.13 µM [rising, full curve, poor fit] | 
COc1ccc(-c2nnc(NC(=O)c3ccco3)s2)cc1 |  |  | 5.56%
Cc1ccc([N+](=O)[O-])cc1NC(=S)NC(=O)c1cccnc1 |  |  | 14.4%
O=C(Nc1nc(-c2ccc(F)c(F)c2)cs1)c1cc([N+](=O)[O-])ccc1N1CCOCC1 |  | 32.6 µM [rising, partial curve] | 5.9%
CCOC(=O)C1CCCN(C(=O)Cc2ccc(Cl)cc2)C1 (stereo not given) |  |  | 4.24%
Cn1nccc1C(=O)Nc1cccc(C(F)(F)F)c1 |  |  | 20.6%
O=C(Nc1ccc(-c2ccc(N3CCCCC3)nn2)cc1)c1ccco1 |  | 1.64 µM [rising, partial curve] | 
CN(CC(=O)Nc1ccc(F)cc1)C(=O)COC(=O)c1ccc(-c2ccccc2)cc1 | 29.1 µM [rising, single point] |  | 57.4%
Cc1ccc(NC2CCCN(C(=O)Cc3nonc3C)C2)cc1C (stereo not given) |  | 29.1 µM [rising, single point] | 9.39%
CNC(=O)c1sccc1SCc1ccc(Cl)cc1Cl |  | 0.0058 µM [falling, full curve, poor fit] | 1.71%
CCOC(=O)c1cnc(-c2ccccc2)nc1Oc1ccc(Cl)c(Cl)c1 |  |  | 19%
COc1cc(NC(=O)c2ccco2)c(OC)cc1NC(=O)c1cc(OC)c(OC)c(OC)c1 |  | 5.8 µM [rising, full curve] | 19.6%
Cc1cccc(NC(=O)CSc2ncnc3c2oc2ccccc23)c1 | 16.4 µM [falling, single point] |  | -48.4%
Cc1ccc(-n2c(=O)cc(NCc3cccnc3)[nH]c2=O)cc1 | 0.103 µM [falling, full curve, poor fit] | 1.3 µM [falling, partial curve] | -39%
O=C(Cn1cnc2ccccc21)OCC(=O)N1CCc2ccccc2C1 |  | 0.116 µM [rising, full curve, poor fit] | -7.63%
COc1ccc(OC)c(N(CC(=O)Nc2cccnc2)S(=O)(=O)c2ccc(C)cc2)c1 | 11.6 µM [rising, partial curve] |  | 35.8%
Cc1nc(COc2ccc(C(=O)Nc3ccccc3N3CCOCC3)cc2)cs1 |  | 6.51 µM [rising, single point] | -20%

Compound | AC50 [1] | AC50 [2] | cell number change
CCCCNC(=O)COC(=O)c1ccc(C)c(NC(=O)c2ccco2)c1 | 6.51 µM [rising, partial curve, poor fit] | 5.8 µM [rising, full curve] | 23.4%
O=C(COc1ccccc1C(=O)NCC1CCCO1)Nc1ccc(Cl)cc1Cl (stereo not given) |  |  | -38.3%
CC1(C)Cc2cccc(OCC(=O)N3CCN(c4ccc(F)cc4)CC3)c2O1 | 0.731 µM [falling, full curve, poor fit] |  | -75%
Oc1ccc(/C=C/c2cc(O)cc(O)c2)cc1 |  | 29.1 µM [rising, single point] | -14.7%
CC(C)(C)c1ccc(Cn2c(=N)n(CC(O)c3ccco3)c3ccccc32)cc1 (stereo not given) | 29.1 µM [falling, single point] | 23.1 µM [falling, single point] | -57.9%
Cc1c(-n2c(O)c(C3=c4ccccc4=NC3=O)sc2=S)c(=O)n(-c2ccccc2)n1C |  | 29.1 µM [rising, single point] | 0.273%
Cc1ccc(N2C(=O)CC(Sc3nccc(C)n3)C2=O)cc1 (stereo not given) |  | 13 µM [rising, partial curve] | -12.1%
COC(=O)c1cccc(NS(=O)(=O)c2ccc(NC(C)=O)cc2)c1C |  |  | -82.8%
CC(OC(=O)CC1Sc2ccccc2NC1=O)C(=O)NC1CCCC1 (stereo not given) |  | 0.146 µM [falling, full curve] | 0.833%
CCOc1ccc(Cc2nc(C)c(CC(=O)N3CCOCC3)c(=O)[nH]2)cc1 |  |  | -3.27%
O=C(O)c1cccc(N2C(=O)/C(=C/c3ccc(SCc4ccc(Cl)cc4)o3)SC2=S)c1 | 0.00461 µM [falling, full curve, poor fit] |  | 2.73%
Cc1cccc(-c2c(O)cc(=O)[nH]c2Cl)c1 |  |  | 1.09%
CCOCCCNC(=O)C1CCN(S(=O)(=O)c2cc(Br)cc3c2N(C(=O)CC)CC3)CC1 |  | 6.51 µM [rising, single point] | -27.6%
Cc1cc(C)nc(NS(=O)(=O)c2ccc(NC(=O)c3cccc(N4C(=O)CCC4=O)c3)cc2)n1 | 0.092 µM [rising, full curve, poor fit] | 23.1 µM [falling, partial curve, poor fit] | 12.8%
COc1ccc(N/C(C)=C/C(=S)Nc2ccccc2)cc1 |  | 0.517 µM [rising, partial curve] | 15.8%
O=C(Nc1ccc2c(c1)oc1ccccc12)C1CC1 |  | 2.59 µM [rising, single point] | -5.56%
Brc1ccc(-c2ccc(/C=N/Nc3nc4ccccc4[nH]3)o2)cc1 | 29.1 µM [falling, partial curve, poor fit] | 25.9 µM [falling, partial curve] | -52.9%
CCOC(=O)N1CCN(C(=O)/C(=C/c2cccc3ccccc23)NC(=O)c2ccc(OC)c(OC)c2)CC1 |  | 5.17 µM [rising, partial curve] | 4.01%
CCCCCOC(=O)Cn1c(=O)c2c(nc(N3CCOCC3)n2C)n(C)c1=O |  | 6.51 µM [rising, single point] | 
Fc1ccc(Oc2ccc3nnc(C(F)(F)F)n3n2)cc1 |  | 18.4 µM [rising, single point] | 

Compound | AC50 [1] | AC50 [2] | cell number change
CCOC(=O)CNC(=O)CSc1nnc(NC(=O)c2ccc(S(=O)(=O)N3CCOCC3)cc2)s1 |  | 0.651 µM [rising, partial curve] | 9.48%
CCOC(=O)C1=CCC2c3c(c4ccccc4n3C)C(=O)C1N2C(=O)OC(C)(C)C (stereo not given) | 0.731 µM [falling, full curve] | 0.92 µM [falling, full curve] | -1.9%
Cc1nn(-c2ccccc2)c2sc(C(=O)NC3CC3)cc12 | 1.46 µM [falling, partial curve] |  | -44.4%
C/C(=N/NS(=O)(=O)c1ccc(Br)cc1)c1ccc(NC(=O)c2ccc(C)o2)cc1 |  | 10.3 µM [rising, partial curve] | -23.8%
CCOC(=O)C1=C(COCCN)NC(C)=C(C(=O)OC)C1c1ccccc1Cl (stereo not given) |  | 2.91 µM [rising, full curve] and 164 nM [rising, full curve, poor fit] | 14.1% and 2.89%
CCOC(=O)C1CCN(CC(O)COc2ccc(C(C)=O)cc2)CC1 (stereo not given) |  | 0.00517 µM [falling, full curve, poor fit] | 
Cc1ccc(-c2nnc(CN3CCCCC3C)o2)cc1 (stereo not given) |  | 16.4 µM [rising, single point] | 14.9%
CN(C)c1ccc(C2Nc3ccccc3C(=O)N2CCCN2CCOCC2)cc1 (stereo not given) |  | 5.8 µM [rising, partial curve, poor fit] | 40.1%
COc1ccc(NC(=O)c2cccc(N3C(=O)C4C5C=CC(C5)C4C3=O)c2)cc1 (stereo not given) |  | 29.1 µM [falling, single point] | -5.8%
Cc1ccc2nc(-c3ccccn3)cc(C(=O)Nc3ccc4c(c3)OCO4)c2c1 |  |  | 76%
COc1ccc(/C=C2\SC(=O)N(CC(=O)NC3CCS(=O)(=O)C3)C2=O)cc1 (stereo not given) |  | 5.8 µM [rising, single point] | 26.7%
CCc1ccccc1NC(=O)CN1CCN(CC(=O)Nc2cc(C)ccc2OC)CC1 |  | 0.231 µM [rising, full curve, poor fit] | 
CC#CC[N+](C)(C)CCCCCCCCCCCC | 16.4 µM [falling, single point] |  | -75.7%
Cc1ccccc1NS(=O)(=O)c1ccc(NC(=O)c2nc3ncccn3n2)cc1 |  | 4.11 µM [rising, partial curve, poor fit] | 
COc1ccccc1CNC(=O)[C@@H]1CCCN1S(=O)(=O)c1ccccc1F |  |  | 5.46%
COc1ccc(C(=O)N2CC3(CC(c4cccc(NC(=O)CC(c5ccccc5)c5ccccc5)c4)=NO3)C[C@H]2C(N)=O)cc1 (stereo not given in full) |  | 0.651 µM [rising, partial curve, poor fit] | 11.1%
CC1CN(C(=S)NC(=O)c2cccc([N+](=O)[O-])c2)CC(C)O1 (stereo not given) |  | 0.461 µM [falling, full curve, poor fit] | -13.2%
CCC(C)[C@H](NC(=O)N1CCCCCC1)C(=O)O (stereo not given in full) |  |  | 12.4%
CCOC(=O)CSc1nc2c(sc(=S)n2-c2ccccc2)c(=O)n1-c1ccc(OC)cc1OC | 25.9 µM [rising, single point] | 29.1 µM [rising, single point] | 38%
CCOC(=O)c1c(NC(=O)CSc2nnc(-c3ccco3)o2)sc(C(C)=O)c1C | 0.517 µM [rising, full curve] | 0.517 µM [rising, full curve] | 14.3%
